Test results as given in article PMC8379256, “A xanthene derivative, DS20060511, attenuates glucose intolerance by inducing skeletal muscle-specific GLUT4 translocation in mice” (Communications Biology, 2021).
Values joined by “and” are separate entries in the source; they are usually repeats but may differ in a detail not shown here. Identical values can stand only once. This continues a long series; more values of the same kind are listed elsewhere.

Tested on: C57BL/6 mice
Assay: Indirect calorimetry and exercise endurance under stepwise treadmill running
Assay type: in vivo, mouse
Settings: for Fat oxodation / Gluocse oxdation: 30 mg/kg, individual mice 1-7; for CO2 Production (VCO2) / O2 Consumption (VO2) / Respiratory quotient: DS20060511 30 mg/kg, individual mice 1-7, Fig. 5a
Protocol: The mice were acclimatized to the treadmill by allowing them to run at 10 m min^−1 for 10 min on the day before the test. On the day of the test, the mice received oral administration of 30 mg kg^−1 of DS20060511 or vehicle 15 min before they were made to run. The treadmill was started at a velocity of 10 m min^−1, with the speed increased stepwise by 2 m min^−1 every 3 min, to assess the exercise endurance capacity as described previously. Measurements of the oxygen consumption (VO2) and exhaled carbon dioxide (VCO2) under treadmill running were conducted with the ARCO-2000 magnetic-type mass spectrometric calorimeter (ARCO System, Kashiwa, Japan) connected to the treadmill chamber (MB-2000, ARCO System). The RER was calculated as the VCO2/VO2 ratio and the substrate utilization rates were calculated using Frayn’s formula[51]: rate of glucose oxidation = 4.585VCO2 − 3.226VO2; rate of fat oxidation = 1.695VO2 − 1.701VCO2. The exercise endurance capacity under treadmill running was determined by measuring the time from the start to the time until the mice ceased to run because of exhaustion, which was defined as remaining on the shocker plate for more than 10 sec. Immediately after the exercise, the blood glucose and lactate levels were measured using Glutest Every and Lactate Pro2 (ARKRAY, Kyoto, Japan), respectively, in blood samples collected from the tail vein.

SMILES: COc1ccc2c(C)c(C(=O)O)ccc2c1C1C2=C(CC(C)(C)CC2=O)OC2=C1C(=O)CC(C)(C)C2 [DS20060511]
- Fat oxodation (0 min): 42.7 mg/min/kg and 29.8 mg/min/kg and 47.9 mg/min/kg and 33.8 mg/min/kg and 28.5 mg/min/kg and 27.7 mg/min/kg and 40.5 mg/min/kg
- Gluocse oxdation (0 min): 18.2 mg/min/kg and 55.1 mg/min/kg and 66.4 mg/min/kg and 36.8 mg/min/kg and 34.2 mg/min/kg and 39.5 mg/min/kg and 42.0 mg/min/kg
- Fat oxodation (1 min): 45.5 mg/min/kg and 32.2 mg/min/kg and 46.7 mg/min/kg and 25.3 mg/min/kg and 20.1 mg/min/kg and 30.2 mg/min/kg and 37.1 mg/min/kg
- Gluocse oxdation (1 min): 18.2 mg/min/kg and 57.0 mg/min/kg and 57.7 mg/min/kg and 34.5 mg/min/kg (2×) and 40.4 mg/min/kg and 38.9 mg/min/kg
- Fat oxodation (16 min): 38.4 mg/min/kg and 25.4 mg/min/kg and 30.2 mg/min/kg and 38.0 mg/min/kg and 21.2 mg/min/kg
- Gluocse oxdation (16 min): 36.7 mg/min/kg and 23.9 mg/min/kg and 103.8 mg/min/kg and 50.6 mg/min/kg and 64.1 mg/min/kg
- Fat oxodation (17 min): 38.9 mg/min/kg and 22.8 mg/min/kg and 33.5 mg/min/kg and 17.9 mg/min/kg and 29.7 mg/min/kg and 34.5 mg/min/kg and 23.7 mg/min/kg
- Gluocse oxdation (17 min): 48.6 mg/min/kg and 86.9 mg/min/kg and 38.0 mg/min/kg and 37.9 mg/min/kg and 99.3 mg/min/kg and 64.2 mg/min/kg and 65.1 mg/min/kg
- Fat oxodation (18 min): 40.3 mg/min/kg and 23.4 mg/min/kg and 38.3 mg/min/kg and 26.5 mg/min/kg and 28.8 mg/min/kg and 33.0 mg/min/kg and 27.0 mg/min/kg
- Gluocse oxdation (18 min): 37.9 mg/min/kg and 72.9 mg/min/kg and 38.8 mg/min/kg and 44.8 mg/min/kg and 96.1 mg/min/kg and 56.1 mg/min/kg and 63.5 mg/min/kg
- Fat oxodation (19 min): 38.2 mg/min/kg and 24.7 mg/min/kg and 37.3 mg/min/kg and 29.3 mg/min/kg and 31.6 mg/min/kg and 29.6 mg/min/kg and 25.9 mg/min/kg
- Gluocse oxdation (19 min): 37.9 mg/min/kg (2×) and 65.0 mg/min/kg and 47.7 mg/min/kg and 99.0 mg/min/kg and 59.5 mg/min/kg and 62.0 mg/min/kg
- Fat oxodation (20 min): 42.4 mg/min/kg and 24.3 mg/min/kg and 36.1 mg/min/kg and 27.9 mg/min/kg and 29.4 mg/min/kg and 31.1 mg/min/kg and 29.1 mg/min/kg
- Gluocse oxdation (20 min): 46.0 mg/min/kg and 64.7 mg/min/kg and 41.4 mg/min/kg and 45.0 mg/min/kg and 88.2 mg/min/kg and 50.3 mg/min/kg and 68.8 mg/min/kg
- Fat oxodation (21 min): 43.1 mg/min/kg (2×) and 26.1 mg/min/kg and 36.5 mg/min/kg and 28.8 mg/min/kg and 31.2 mg/min/kg and 29.3 mg/min/kg
- Gluocse oxdation (21 min): 45.1 mg/min/kg and 69.4 mg/min/kg and 17.2 mg/min/kg and 44.6 mg/min/kg and 91.1 mg/min/kg and 48.9 mg/min/kg and 61.3 mg/min/kg
- Fat oxodation (22 min): 40.9 mg/min/kg and 25.6 mg/min/kg and 37.2 mg/min/kg and 27.2 mg/min/kg and 24.3 mg/min/kg and 32.2 mg/min/kg and 32.3 mg/min/kg
- Gluocse oxdation (22 min): 42.7 mg/min/kg and 66.9 mg/min/kg and 72.1 mg/min/kg and 40.1 mg/min/kg and 86.1 mg/min/kg and 55.3 mg/min/kg and 60.9 mg/min/kg
- Fat oxodation (23 min): 41.8 mg/min/kg and 24.9 mg/min/kg and 36.6 mg/min/kg and 28.2 mg/min/kg and 26.0 mg/min/kg and 32.9 mg/min/kg and 33.1 mg/min/kg
- Gluocse oxdation (23 min): 46.5 mg/min/kg and 66.1 mg/min/kg and 71.0 mg/min/kg and 35.9 mg/min/kg and 82.6 mg/min/kg and 57.0 mg/min/kg and 70.8 mg/min/kg
- Fat oxodation (24 min): 33.9 mg/min/kg and 23.5 mg/min/kg and 37.4 mg/min/kg and 29.0 mg/min/kg and 25.1 mg/min/kg and 30.0 mg/min/kg and 34.8 mg/min/kg
- Gluocse oxdation (24 min): 45.3 mg/min/kg and 67.2 mg/min/kg and 83.8 mg/min/kg and 41.3 mg/min/kg and 80.6 mg/min/kg and 69.0 mg/min/kg and 78.3 mg/min/kg
- Fat oxodation (25 min): 36.1 mg/min/kg and 21.7 mg/min/kg and 35.1 mg/min/kg and 28.1 mg/min/kg and 23.9 mg/min/kg and 34.1 mg/min/kg and 36.7 mg/min/kg
- Gluocse oxdation (25 min): 50.1 mg/min/kg and 70.7 mg/min/kg and 85.4 mg/min/kg and 36.9 mg/min/kg and 76.2 mg/min/kg and 59.5 mg/min/kg and 96.1 mg/min/kg
- Fat oxodation (26 min): 28.4 mg/min/kg and 20.3 mg/min/kg and 29.6 mg/min/kg and 24.4 mg/min/kg and 21.1 mg/min/kg and 32.4 mg/min/kg and 38.4 mg/min/kg
- Gluocse oxdation (26 min): 66.4 mg/min/kg and 74.7 mg/min/kg and 93.6 mg/min/kg and 41.2 mg/min/kg and 67.8 mg/min/kg and 88.6 mg/min/kg and 105.2 mg/min/kg
- Fat oxodation (27 min): 24.4 mg/min/kg and 22.5 mg/min/kg and 34.6 mg/min/kg and 27.5 mg/min/kg and 19.7 mg/min/kg and 33.1 mg/min/kg and 40.1 mg/min/kg
- Gluocse oxdation (27 min): 58.3 mg/min/kg and 72.5 mg/min/kg and 93.5 mg/min/kg and 42.8 mg/min/kg and 66.4 mg/min/kg and 103.0 mg/min/kg and 99.1 mg/min/kg
- Fat oxodation (28 min): 26.1 mg/min/kg and 22.8 mg/min/kg and 34.8 mg/min/kg and 23.3 mg/min/kg and 25.3 mg/min/kg and 31.3 mg/min/kg and 43.2 mg/min/kg
- Gluocse oxdation (28 min): 54.9 mg/min/kg and 81.2 mg/min/kg and 82.8 mg/min/kg and 41.8 mg/min/kg and 58.6 mg/min/kg and 98.4 mg/min/kg and 101.3 mg/min/kg
- Fat oxodation (29 min): 24.1 mg/min/kg and 23.3 mg/min/kg and 32.2 mg/min/kg and 29.5 mg/min/kg and 26.1 mg/min/kg and 29.8 mg/min/kg and 41.3 mg/min/kg
- Gluocse oxdation (29 min): 53.7 mg/min/kg and 64.9 mg/min/kg and 83.3 mg/min/kg and 43.6 mg/min/kg and 59.4 mg/min/kg and 112.5 mg/min/kg and 100.4 mg/min/kg
- Fat oxodation (30 min): 24.2 mg/min/kg and 23.4 mg/min/kg and 32.6 mg/min/kg and 26.5 mg/min/kg and 27.5 mg/min/kg and 26.4 mg/min/kg and 42.4 mg/min/kg
- Gluocse oxdation (30 min): 63.6 mg/min/kg and 71.9 mg/min/kg and 80.1 mg/min/kg and 55.3 mg/min/kg and 50.6 mg/min/kg and 117.8 mg/min/kg and 102.1 mg/min/kg
- CO2 Production (VCO2) (0 min): 89.5 ml/min/kg (2×) and 73.3 ml/min/kg and 81.2 ml/min/kg and 88.5 ml/min/kg and 66.4 ml/min/kg and 82.5 ml/min/kg
- O2 Consumption (VO2) (0 min): 109.7 ml/min/kg and 108.8 ml/min/kg and 106.7 ml/min/kg (2×) and 83.0 ml/min/kg and 115.0 ml/min/kg and 91.2 ml/min/kg
- Respiratory quotient (0 min): 0.78 and 0.80 (2×) and 0.74 and 0.81 and 0.84 and 0.77
- CO2 Production (VCO2) (1 min): 94.2 ml/min/kg and 74.4 ml/min/kg and 79.5 ml/min/kg and 78.1 ml/min/kg (2×) and 71.1 ml/min/kg and 68.3 ml/min/kg
- O2 Consumption (VO2) (1 min): 107.3 mL/min/kg and 93.3 mL/min/kg and 83.2 mL/min/kg and 86.4 mL/min/kg and 100.3 mL/min/kg and 121.4 mL/min/kg and 93.7 mL/min/kg
- Respiratory quotient (1 min): 0.78 (2×) and 0.79 (2×) and 0.74 and 0.84 and 0.85
- CO2 Production (VCO2) (16 min): 80.6 mL/min/kg and 93.3 mL/min/kg and 69.8 mL/min/kg and 71.4 mL/min/kg and 106.9 mL/min/kg
- O2 Consumption (VO2) (16 min): 87.9 mL/min/kg and 94.1 mL/min/kg and 119.8 mL/min/kg and 124.8 mL/min/kg and 97.3 mL/min/kg
